The values below come from PMC10849675.

Chains of the proteins cited; added tags and fusions are not shown.
UniProt P25098: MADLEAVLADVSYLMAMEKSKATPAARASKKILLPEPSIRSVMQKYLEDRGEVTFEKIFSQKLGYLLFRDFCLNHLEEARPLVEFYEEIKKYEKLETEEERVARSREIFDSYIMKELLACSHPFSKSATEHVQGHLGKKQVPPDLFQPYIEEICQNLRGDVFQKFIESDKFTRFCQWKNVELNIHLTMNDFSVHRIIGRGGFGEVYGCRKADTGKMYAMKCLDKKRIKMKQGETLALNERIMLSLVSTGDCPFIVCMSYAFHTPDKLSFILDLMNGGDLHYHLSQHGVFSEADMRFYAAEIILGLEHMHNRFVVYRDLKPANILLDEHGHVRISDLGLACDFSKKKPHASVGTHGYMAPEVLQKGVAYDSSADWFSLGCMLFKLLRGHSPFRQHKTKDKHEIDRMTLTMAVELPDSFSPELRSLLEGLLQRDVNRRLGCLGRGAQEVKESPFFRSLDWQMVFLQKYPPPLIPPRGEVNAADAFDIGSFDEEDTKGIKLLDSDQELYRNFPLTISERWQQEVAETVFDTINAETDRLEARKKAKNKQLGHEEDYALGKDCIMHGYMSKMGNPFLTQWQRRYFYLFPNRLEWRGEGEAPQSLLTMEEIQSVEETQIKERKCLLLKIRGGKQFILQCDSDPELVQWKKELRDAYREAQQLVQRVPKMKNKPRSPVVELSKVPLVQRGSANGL

Results are given in words; binding and its absence hold for the method and conditions named. Binding seen in cells or lysates may run through a third protein. Some entries that bind do so weakly or less than the wild type.

The target of test [1] is MOR-H297A mutant (in the MOR-GRK2 FRET assay) (rat) (UniProt P33535). The test can be described thus: FRET or BRET; single-cell FRET in HEK293T cells transfected with MOR-sYFP2, GRK2-mTur2, Gαi-WT, Gβ1-WT and Gγ2-WT; agonist applied (methadone, morphine; 10 µM DAMGO for normalisation); room temperature.
Test [2] concerns the target µ opioid receptor fused to sYFP2 (MOR-sYFP2) (rat) (UniProt P33535). The description is as above.

“GRK2-mTur2 (from UniProt P25098 1-689) (enzyme)”: the binding result in test [1] and in test [2] was “binds” each time.
